Data published in article PMC1764644.
No constants are given. Whether binding was seen depends on the method and setting. Some entries that bind do so weakly or less than the wild type.

By UniProt entry, the sequences of proteins in these tests, tags left out. Where a name states a change or a piece, a line headed by the entry shows the natural chain unless it says otherwise. Residues count along the entry.
UniProt P25445, residues 26-173: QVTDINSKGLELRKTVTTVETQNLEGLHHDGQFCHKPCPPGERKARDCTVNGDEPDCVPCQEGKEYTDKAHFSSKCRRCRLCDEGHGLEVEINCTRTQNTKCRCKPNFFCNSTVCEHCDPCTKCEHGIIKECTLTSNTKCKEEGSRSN
UniProt P25942, residues 21-193: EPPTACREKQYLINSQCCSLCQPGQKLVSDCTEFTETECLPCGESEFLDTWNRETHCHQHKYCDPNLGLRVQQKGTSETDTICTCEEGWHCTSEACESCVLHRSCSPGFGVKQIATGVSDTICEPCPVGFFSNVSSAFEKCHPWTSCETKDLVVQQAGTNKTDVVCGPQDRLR
UniProt P04003: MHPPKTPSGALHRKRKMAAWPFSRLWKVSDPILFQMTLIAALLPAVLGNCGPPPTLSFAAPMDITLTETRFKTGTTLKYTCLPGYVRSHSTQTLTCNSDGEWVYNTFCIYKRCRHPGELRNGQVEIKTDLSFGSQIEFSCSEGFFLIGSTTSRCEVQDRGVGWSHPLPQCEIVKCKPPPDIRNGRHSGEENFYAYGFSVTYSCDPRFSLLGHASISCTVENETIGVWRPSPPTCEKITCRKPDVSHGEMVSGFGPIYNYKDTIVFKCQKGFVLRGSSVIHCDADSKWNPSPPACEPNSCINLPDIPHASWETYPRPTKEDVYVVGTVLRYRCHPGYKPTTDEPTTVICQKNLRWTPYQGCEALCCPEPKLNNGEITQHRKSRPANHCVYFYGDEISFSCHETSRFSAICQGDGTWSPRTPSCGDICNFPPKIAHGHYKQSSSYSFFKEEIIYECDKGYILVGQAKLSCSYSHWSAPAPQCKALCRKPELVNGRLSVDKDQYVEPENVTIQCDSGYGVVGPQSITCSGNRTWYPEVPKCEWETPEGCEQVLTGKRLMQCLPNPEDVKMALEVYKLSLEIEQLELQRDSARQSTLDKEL
UniProt P48023, residues 130-281: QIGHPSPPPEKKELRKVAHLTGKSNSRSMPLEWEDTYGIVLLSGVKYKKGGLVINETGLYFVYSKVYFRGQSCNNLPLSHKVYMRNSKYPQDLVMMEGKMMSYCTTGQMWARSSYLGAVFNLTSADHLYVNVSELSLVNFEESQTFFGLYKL
UniProt P29965, residues 113-261: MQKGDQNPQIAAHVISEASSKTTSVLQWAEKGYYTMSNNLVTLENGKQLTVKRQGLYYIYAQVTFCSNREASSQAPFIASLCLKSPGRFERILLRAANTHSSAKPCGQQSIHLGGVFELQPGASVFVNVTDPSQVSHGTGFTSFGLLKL

Experiments:
[1] = target: CD95 (Fas) (UniProt P25445); assay: SPR; data not shown; CD95 or CD178 immobilised, C4BP flowed under the same conditions; soluble CD178 on immobilised CD95 with C4BP; both purified
[2] = target: human CD40 murine-IgG fusion protein (human) (UniProt P25942); assay: SPR; Biacore 3000, CM5 chip; CD40 fusion protein immobilised at 2000, 500 and 100 ru on three channels; C4BP titrated from 40 µg/ml to 400 µg/ml; sCD154 flowed before and after the titration; 25°C, HBS-EP; both purified
[3] = target: human CD40 murine-IgG fusion protein (human) (UniProt P25942); assay: SPR; Biacore 3000, CM5 chip; human CD40 murine-IgG fusion protein immobilised (10 µg/ml); sCD154 10 µg/ml, C4BP 40 µg/ml or a mixture of both flowed in various orders; 25°C, HBS-EP (10 mM HEPES pH 7.4, 150 mM NaCl, 0.005% surfactant P20); both purified
[4] = target: C4b binding protein (C4BP), purified native (UniProt P04003); assay: SEC; C4BP and sCD154 (5 ug:1 ug) incubated at 37°C for 1 hour, Sephacryl-300, 0.1 M NaPO4 pH 7.4, 0.15 M NaCl; 100 µl fractions assayed for CD154 by ELISA; both purified
[5] = target: C4b binding protein (C4BP), purified native (UniProt P04003); assay: SPR; Biacore 3000, CM5 chip; C4BP (20 µg/ml) immobilised at pH 4.2, 5.0 and 5.6; sCD154 0.31 to 10 µg/ml at 2 µl/min for 120 minutes, 60 minutes dissociation, or sCD40 flowed; 25°C, HBS-EP; both purified

## CD178 (Fas Ligand) (from UniProt P48023 130-281)
[1]
  binding: binds

## C4b binding protein (C4BP), purified native (from UniProt P04003 49-597; P20851 18-252) (complex)
[2]
  binding: no binding (tested: 400 µg/ml)
[3]
  binding: no binding (tested: 40 µg/ml)

## recombinant soluble CD40 ligand (sCD154) (from UniProt P29965 113-261)
[4]
  binding: binds
[5]
  binding: binds

## soluble CD40 (sCD40) (from UniProt P25942 21-193) (receptor)
[5]
  binding: no binding
